Results on three molecules are retold here after paper PMC10015162.

Amino acid sequences for entries named in this document (tags omitted).
UniProt Q39011: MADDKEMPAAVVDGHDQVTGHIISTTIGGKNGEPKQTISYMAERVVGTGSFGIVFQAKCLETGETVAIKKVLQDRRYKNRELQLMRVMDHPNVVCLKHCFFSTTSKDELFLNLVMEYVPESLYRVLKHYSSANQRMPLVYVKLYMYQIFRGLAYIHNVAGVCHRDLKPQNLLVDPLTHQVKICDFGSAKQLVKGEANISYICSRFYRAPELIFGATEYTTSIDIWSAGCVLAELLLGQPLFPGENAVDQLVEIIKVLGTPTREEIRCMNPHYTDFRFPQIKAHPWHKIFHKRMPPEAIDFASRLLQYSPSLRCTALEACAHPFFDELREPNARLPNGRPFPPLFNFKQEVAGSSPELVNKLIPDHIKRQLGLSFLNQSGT
UniProt Q8S307: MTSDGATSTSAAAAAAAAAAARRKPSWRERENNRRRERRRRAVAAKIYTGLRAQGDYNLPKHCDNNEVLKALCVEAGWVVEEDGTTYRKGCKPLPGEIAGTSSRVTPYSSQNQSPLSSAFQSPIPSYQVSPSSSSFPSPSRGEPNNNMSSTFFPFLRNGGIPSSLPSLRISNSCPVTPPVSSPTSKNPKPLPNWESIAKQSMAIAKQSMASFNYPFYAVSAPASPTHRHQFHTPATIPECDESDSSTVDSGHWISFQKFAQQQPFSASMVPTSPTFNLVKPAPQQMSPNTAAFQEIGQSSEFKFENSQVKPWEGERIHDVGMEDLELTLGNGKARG

No constants are given. Whether binding was seen depends on the method and setting. In cells and extracts the contact can be indirect. These calls come from enrichment with a bait or labelling near it, and not all partners need be listed. For some of these results: A no says only that the protein was not detected with the bait. For some of these results: Sequences can lack the tags named with a protein.

In experiment [1] the target is T1, PP2AB′α-YFP-TbID (PP2A regulatory subunit B′α fused with YFP and TurboID) (Arabidopsis thaliana) (UniProt O04375).
T1 sequence: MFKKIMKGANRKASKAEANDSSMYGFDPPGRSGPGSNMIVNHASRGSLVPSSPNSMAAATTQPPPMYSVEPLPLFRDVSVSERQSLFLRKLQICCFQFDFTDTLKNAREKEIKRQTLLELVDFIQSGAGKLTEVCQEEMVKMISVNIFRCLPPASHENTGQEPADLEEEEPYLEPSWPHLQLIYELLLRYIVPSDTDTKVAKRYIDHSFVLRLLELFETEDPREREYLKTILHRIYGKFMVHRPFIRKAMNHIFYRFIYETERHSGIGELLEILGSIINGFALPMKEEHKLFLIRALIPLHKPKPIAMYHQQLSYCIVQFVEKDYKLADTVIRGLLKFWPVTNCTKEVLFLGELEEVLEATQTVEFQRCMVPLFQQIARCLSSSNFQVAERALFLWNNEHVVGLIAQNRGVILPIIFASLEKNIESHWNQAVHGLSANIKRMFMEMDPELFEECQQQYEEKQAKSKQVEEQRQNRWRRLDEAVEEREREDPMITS
Put plainly: proximity labelling; TurboID fusion co-expressed with BZR1-MH in N. benthamiana leaves; 50 µM biotin for 3 h; extract desalted; streptavidin pulldown; immunoblot with anti-Myc. Background: Immunoblotting shows a protein as a band on a membrane.

Experiment [2] has as its target T2, PP2AB′ε-YFP-TbID (PP2A regulatory subunit B′ε fused with YFP and TurboID) (Arabidopsis thaliana) (UniProt Q9SV41).
T2 sequence: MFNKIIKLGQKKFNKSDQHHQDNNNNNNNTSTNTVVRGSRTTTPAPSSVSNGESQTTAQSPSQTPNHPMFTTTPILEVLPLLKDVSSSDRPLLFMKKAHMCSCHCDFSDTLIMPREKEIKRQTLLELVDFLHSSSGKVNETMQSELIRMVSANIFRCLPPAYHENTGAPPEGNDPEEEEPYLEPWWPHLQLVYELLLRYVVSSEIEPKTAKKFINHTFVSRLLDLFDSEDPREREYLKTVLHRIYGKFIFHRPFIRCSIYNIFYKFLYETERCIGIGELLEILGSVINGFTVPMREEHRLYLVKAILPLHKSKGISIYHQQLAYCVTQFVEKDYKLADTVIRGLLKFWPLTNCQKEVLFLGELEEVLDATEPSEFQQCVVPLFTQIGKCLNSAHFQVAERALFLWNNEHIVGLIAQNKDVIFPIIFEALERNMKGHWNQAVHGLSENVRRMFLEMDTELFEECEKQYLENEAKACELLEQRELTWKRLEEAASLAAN
Described as above.

Experiment [3] has as its target BIN2-YFP-TbID (full-length BIN2 fused with YFP and TurboID), in transgenic Arabidopsis (Arabidopsis thaliana) (UniProt Q39011). In words: proximity labelling; TbPL-MS: transgenic Arabidopsis seedlings with BIN2-YFP-TbID against YFP-YFP-TbID control, 14N/15N labelling, 50 µM biotin for 3 h, desalting, streptavidin beads, on-bead digestion, LC-MS/MS; BIN2-proximal: ratio >=3 in at least three of four replicates.

As for “BZR1-MH (BZR1 fused with 4×Myc-6×His tag) (from UniProt Q8S307 1-336)”, the binding result is recorded as “binds” in experiment [1] and “no binding” in experiment [2].

B1: BSL3 (protein, UniProt Q9SHS7 1-1006)
chain: MDLDSSMVPENDQDPIATSENQSPMEEKEEASEQQTGSESESASLTPSLPPPSQQQQQQQQQPQVTAVVGPRCAPTYSVVNAIIEKKEDGPGPRCGHTLTAVPAVGEEGTSSYIGPRLILFGGATALEGNSGGTGTPTSAGSAGIRLAGATADVHCYDVLSNKWSRLTPYGEPPSPRAAHVATAVGTMVVIQGGIGPAGLSAEDLHVLDLTQQRPRWHRVVVQGPGPGPRYGHVMALVGQRYLMAIGGNDGKRPLADVWALDTAAKPYEWRKLEPEGEGPPPCMYATASARSDGLLLLCGGRDANSVPLASAYGLAKHRDGRWEWAIAPGVSPSARYQHAAVFVNARLHVSGGALGGGRMVEDSSSVAVLDTAAGVWCDTKSVVTSPRTGRYSADAAGGDASVELTRRCRHAAAAVGDLIFIYGGLRGGVLLDDLLVAEDLAAAETTSAASHAAAAAAATNTPPGRSPGRYGFSDERTGELPESAPDAVVLGSPVAPPVNGDMYTDISTENAMVPGIRRTSKGVEYLVEASAAEAEAISATLAAAKARQVNGEVELPDRDRGAEATPSGKPSLSLIKPDSAVPNSVIPAGVRLHHRAVVVAAETGGALGGMVRQLSIDQFENEGRRVSYGTPESATAARKLLDRQMSINSVPKKVVAHLLKPRGWKPPVRRQFFLDCNEIADLCDSAERIFSSEPTVLQLKAPIKIFGDLHGQFGDLMRLFDEYGSPSTAGDISYIDYLFLGDYVDRGQHSLETITLLLALKVEYQHNVHLIRGNHEAADINALFGFRIECIERMGERDGIWVWHRINRLFNWLPLAALIEKKIICMHGGIGRSINHVEQIENIQRPITMEAGSIVLMDLLWSDPTENDSVEGLRPNARGPGLVTFGPDRVMEFCNNNDLQLIVRAHECVMDGFERFAQGHLITLFSATNYCGTANNAGAILVLGRDLVVVPKLIHPLPPAITSPETSPERHIEDTWMQELNVNRPPTPTRGRPQNPNDRGSLAWI
For the molecule B1, in experiment [3], the binding result was “binds”.

B2: MCCA (protein, UniProt Q42523 26-734)
chain: SGSASMKPKEQCIEKILVANRGEIACRIMRTAKRLGIQTVAVYSDADRDSLHVKSADEAVRIGPPSARLSYLSGVTIMEAAARTGAQAIHPGYGFLSESSDFAQLCEDSGLTFIGPPASAIRDMGDKSASKRIMGAAGVPLVPGYHGHEQDIDHMKSEAEKIGYPIIIKPTHGGGGKGMRIVQSGKDFADSFLGAQREAAASFGVNTILLEKYITRPRHIEVQIFGDKHGNVLHLYERDCSVQRRHQKIIEEAPAPNISEKFRANLGQAAVSAARAVGYYNAGTVEFIVDTESDQFYFMEMNTRLQVEHPVTEMIVGQDLVEWQIRVANGEPLPLSQSEVPMSGHAFEARIYAENVPKGFLPATGVLNHYRPVAVSPSVRVETGVEQGDTVSMHYDPMIAKLVVWGGNRGEALVKLKDCLSNFQVAGVPTNINFLQKLASHKEFAVGNVETHFIEHHKSDLFADESNPAATEVAYKAVKHSAALVAACISTIEHSTWNESNHGKVPSIWYSNPPFRVHHEAKQTIELEWNNECEGTGSNLISLGVRYQPDGSYLIEEGNDSPSLELRVTRAGKCDFRVEAAGLSMNVSLAAYLKDGYKHIHIWHGSEHHQFKQKVGIEFSEDEEGVQHRTSSETSSHPPGTIVAPMAGLVVKVLVENEAKVDQGQPILVLEAMKMEHVVKAPSSGSIQDLKVKAGQQVSDGSALFRIKG
As for B2, in experiment [3], the binding entry is “no binding”.
